Laboratory results as given in paper PMC4995097, “Talin-KANK1 interaction controls the recruitment of cortical microtubule stabilizing complexes to focal adhesions” (eLife, 2016).
No constants are given. Whether binding was seen depends on the method and setting. In cells and extracts the contact can be indirect. A yes stands for co-enrichment or nearness to the bait. Other partners may have been found. Where a sequence is shown, tags or fusion partners need not be part of it.

Target: T1, BioGFP-tagged KANK1 (full-length) (human) (UniProt Q14678)
T1 sequence (chain, biotinylated on the Bio tag (by BirA)): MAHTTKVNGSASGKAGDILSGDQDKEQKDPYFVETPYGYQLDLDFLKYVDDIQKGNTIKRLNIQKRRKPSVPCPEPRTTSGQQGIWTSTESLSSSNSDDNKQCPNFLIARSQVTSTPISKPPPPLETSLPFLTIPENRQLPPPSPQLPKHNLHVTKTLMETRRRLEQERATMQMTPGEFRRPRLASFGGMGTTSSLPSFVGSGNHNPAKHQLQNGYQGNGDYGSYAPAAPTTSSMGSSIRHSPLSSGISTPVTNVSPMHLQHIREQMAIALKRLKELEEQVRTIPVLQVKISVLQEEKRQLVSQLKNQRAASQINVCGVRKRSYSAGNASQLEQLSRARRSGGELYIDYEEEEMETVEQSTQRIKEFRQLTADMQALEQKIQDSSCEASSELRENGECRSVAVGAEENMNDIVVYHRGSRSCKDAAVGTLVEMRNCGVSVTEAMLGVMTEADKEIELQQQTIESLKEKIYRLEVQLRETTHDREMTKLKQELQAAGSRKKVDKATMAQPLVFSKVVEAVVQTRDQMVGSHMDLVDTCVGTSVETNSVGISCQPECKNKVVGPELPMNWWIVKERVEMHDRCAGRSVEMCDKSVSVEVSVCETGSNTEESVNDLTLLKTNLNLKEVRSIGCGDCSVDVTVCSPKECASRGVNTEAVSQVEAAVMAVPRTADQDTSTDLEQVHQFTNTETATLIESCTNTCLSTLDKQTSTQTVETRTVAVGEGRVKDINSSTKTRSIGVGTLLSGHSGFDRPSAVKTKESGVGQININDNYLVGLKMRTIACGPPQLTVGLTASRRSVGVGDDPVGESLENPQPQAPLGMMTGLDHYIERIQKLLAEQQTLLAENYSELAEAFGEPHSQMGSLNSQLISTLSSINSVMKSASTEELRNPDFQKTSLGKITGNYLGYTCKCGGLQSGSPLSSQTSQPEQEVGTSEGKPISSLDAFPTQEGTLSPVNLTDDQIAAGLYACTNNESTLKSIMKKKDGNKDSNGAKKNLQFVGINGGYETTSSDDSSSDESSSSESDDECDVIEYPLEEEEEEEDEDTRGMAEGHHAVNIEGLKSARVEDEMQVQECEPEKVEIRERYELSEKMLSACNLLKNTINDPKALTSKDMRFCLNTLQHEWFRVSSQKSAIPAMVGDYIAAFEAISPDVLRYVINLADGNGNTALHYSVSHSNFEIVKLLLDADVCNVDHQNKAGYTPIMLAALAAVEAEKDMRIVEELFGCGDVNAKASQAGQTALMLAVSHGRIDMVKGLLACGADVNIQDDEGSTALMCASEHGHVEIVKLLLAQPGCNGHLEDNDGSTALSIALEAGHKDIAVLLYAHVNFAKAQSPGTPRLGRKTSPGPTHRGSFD
Assay: affinity purification with mass spectrometry; Bio-GFP-tagged KANK1 or its N- and C-terminal fragments co-expressed with biotin ligase BirA in HEK293T; streptavidin beads; endogenous preys found by nanoLC-MS/MS

- binding: binds
B1: LL5β (endogenous, HEK293T) (protein, UniProt Q86SQ0 1-1253)
chain: MEEHSYIQKELDLQNGSLEEDSVVHSVENDSQNMMESLSPKKYSSSLRFKANGDYSGSYLTLSQPVPAKRSPSPLGTSVRSSPSLAKIQGSKQFSYDGTDKNIPMKPPTPLLNTTSSLSGYPLGRADFDHYTGRDSERALRLSEKPPYSKYSSRHKSHDNVYSLGGLEGRKASGSLLAMWNGSSLSDAGPPPISRSGAASMPSSPKQARKMSIQDSLALQPKLTRHKELASENINLRTRKYSSSSLSHMGAYSRSLPRLYRATENQLTPLSLPPRNSLGNSKRTKLGEKDLPHSVIDNDNYLNFSSLSSGALPYKTSASEGNPYVSSTLSVPASPRVARKMLLASTSSCASDDFDQASYVGTNPSHSLLAGESDRVFATRRNFSCGSVEFDEADLESLRQASGTPQPALRERKSSISSISGRDDLMDYHRRQREERLREQEMERLERQRLETILSLCAEYTKPDSRLSTGTTVEDVQKINKELEKLQLSDEESVFEEALMSPDTRYRCHRKDSLPDADLASCGSLSQSSASFFTPRSTRNDELLSDLTRTPPPPSSTFPKASSESSYLSILPKTPEGISEEQRSQELAAMEETRIVILNNLEELKQKIKDINDQMDESFRELDMECALLDGEQKSETTELMKEKEILDHLNRKIAELEKNIVGEKTKEKVKLDAEREKLERLQELYSEQKTQLDNCPESMREQLQQQLKRDADLLDVESKHFEDLEFQQLEHESRLDEEKENLTQQLLREVAEYQRNIVSRKEKISALKKQANHIVQQAQREQDHFVKEKNNLIMMLQREKENLCNLEKKYSSLSGGKGFPVNPNTLKEGYISVNEINEPCGNSTNLSPSTQFPADADAVATEPATAVLASQPQSKEHFRSLEERKKQHKEGLYLSDTLPRKKTTSSISPHFSSATMGRSITPKAHLPLGQSNSCGSVLPPSLAAMAKDSESRRMLRGYNHQQMSEGHRQKSEFYNRTASESNVYLNSFHYPDHSYKDQAFDTLSLDSSDSMETSISACSPDNISSASTSNIARIEEMERLLKQAHAEKTRLLESREREMEAKKRALEEEKRRREILEKRLQEETSQRQKLIEKEVKIRERQRAQARPLTRYLPVRKEDFDLRSHVETAGHNIDTCYHVSITEKTCRGFLIKMGGKIKTWKKRWFVFDRNKRTFSYYADKHETKLKGVIYFQAIEEVYYDHLKNANKSPNPLLTFSVKTHDRIYYMVAPSPEAMRIWMDVIVTGAEGYTHFLL
